Experimental findings from the supplement of paper PMC8616043 are described below.

Several values for one entry are separate records, joined by “and”; a condition that tells them apart may be missing. Equal values may be shown once. Where a name gives a salt, the structure may show the parent alone. The list shows a part of the results. This data set is noisy: repeats of one test often differ as much as different tests do.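 PR50, a 50-repeat proline–arginine dipeptide protein from C9ORF72 (ALS/FTD), was expressed by transfection in U-2 OS human cells stably carrying a GFP sensor with import and classical export signals. Per-well nuclear-minus-cytoplasm GFP, normalized between in-plate DMSO (low) and PR-only (high), was scored versus other test wells; compounds well below zero were hits reversing PR.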

This assay concerns U-2 OS NCT-C biosensor cells expressing PR50. As to the kind of experiment: Z-score of normalised NCT-C biosensor translocation index in PR50-expressing cells; higher = more nuclear biosensor (more disrupted nuclear export). Particulars: 3 µM; 24 h.
On to `C/C=C(/C)C(=O)O[C@H]1CC(C)=CC(=O)[C@@]2(C)CC[C@@](O)(C(C)C)[C@H]12` [Lapidin], for which the Z-score is inactive: -0.0842.
With `O=C(NCCO)c1cccc(-c2cc(Nc3ccc(OC(F)(F)F)cc3)ncn2)c1` the figure was inactive: 0.188; with `Nc1ncnc2c1c(-c1ccc(Oc3ccccc3)cc1)cn2C1CCCC1`, inactive: -0.504; with `c1cc(SSc2ccns2)sn1`, inactive: -1.63.
The result for `C[C@@H]1O[C@@H](O[C@H]2[C@H](Oc3cc(O)c4c(=O)cc(-c5ccc(O)cc5)oc4c3)O[C@H](CO)[C@@H](O)[C@@H]2O)[C@H](O)[C@H](O)[C@H]1O` [Rhoifolin] reads inactive: -0.365; that for `O=C(O)[C@H]1NCCC[C@H]1C(=O)O` (relative stereo) [cis-Piperidine-2,3- dicarboxylic acid], inactive: -0.423; that for `CC(C)CCC[C@@H](C)[C@H]1CC[C@H]2[C@@H]3C[C@@H](NCCCNCCCCNCCCN)C4C[C@@H](O)CC[C@]4(C)[C@H]3CC[C@]12C` (stereo partly specified) [Claramine trifluoroacetate salt], inactive: -0.24.
The result for `COc1cc(/C=C(\C#N)C(=O)Nc2nnc(C(F)(F)F)s2)ccc1OCc1ccc(C(F)(F)F)cc1C(F)(F)F` reads inactive: -0.868; that for `O=[N+]([O-])c1cccc2cn[nH]c12` [7-Nitroindazole], inactive: -0.255; that for `COc1ccccc1OCC(O)CN1CCN(CC(=O)Nc2c(C)cccc2C)CC1` (stereo unspecified) [Ranolazine·2HCl], inactive: -0.193.
Regarding `COc1ccccc1OCC(O)CN1CCN(CC(=O)Nc2c(C)cccc2C)CC1` (stereo unspecified) [Ranolazine dihydrochloride], the Z-score is inactive: -0.768.
The result for `COc1cc([C@@H]2c3cc4c(cc3[C@@H](O[C@@H]3O[C@@H]5CO[C@@H](C)O[C@H]5[C@H](O)[C@H]3O)[C@H]3COC(=O)[C@H]23)OCO4)cc(OC)c1O` [Etoposide] reads inactive: 1.34; that for `CCCNCC(O)COc1ccccc1C(=O)CCc1ccccc1` (stereo unspecified) [Propafenone·HCl], inactive: 3.36; that for `CCCNCC(O)COc1ccccc1C(=O)CCc1ccccc1` (stereo unspecified) [Propafenone hydrochloride], inactive: -0.216.
The result for `C[C@H]1C[C@@H]2[C@H]([C@@H](O)C[C@@]3(C)[C@H]2CC[C@]3(O)C(=O)CO)[C@@]2(C)C=CC(=O)C=C12` [Methylprednisolone] reads inactive: 0.376; that for `CC(=O)O[C@]1(C(C)=O)CC[C@H]2[C@@H]3C[C@H](C)C4=CC(=O)CC[C@]4(C)[C@H]3CC[C@@]21C` [Medroxyprogesterone Acetate], inactive: 0.0816; that for `COc1cc2c(cc1-c1c(C)noc1C)ncc1[nH]c(=O)n([C@H](C)c3ccccn3)c12`, inactive: 1.51 and inactive: 6.12.
The result for `CN(C)c1nc(N(C)C)nc(N(C)C)n1` [Altretamine] reads inactive: 0.415; that for `N[C@H](C(=O)O)[C@H](O)c1ccc(O)c(O)c1`, inactive: -0.846; that for `N=C(N)NCCCC[C@@H]1NC(=O)CCSSC[C@@H](C(N)=O)NC(=O)[C@@H]2CCCN2C(=O)[C@H](Cc2c[nH]c3ccccc23)NC(=O)[C@H](CC(=O)O)NC(=O)CNC1=O` [Eptifibatide], inactive: 0.426.
As for `CCOC(=O)Oc1c(OC)cc(C(=O)O[C@@H]2C[C@@H]3CN4CCc5c([nH]c6cc(OC)ccc56)[C@H]4C[C@@H]3[C@H](C(=O)OC)[C@H]2OC)cc1OC` [Syrosingopine], the Z-score is inactive: 0.0665.
With `CCCCC(F)(F)[C@@]1(O)CC[C@H]2[C@@H](CC(=O)[C@@H]2CCCCCCC(=O)O)O1` [Lubiprostone] the figure was inactive: -1.04; with `COc1ccc(-c2cc3ncc(C)n3c(Nc3ncccc3C(N)=O)n2)cc1OC` [BAY 61-3606 hydrochloride hydrate], inactive: -0.478.
The result for `CCC(=O)O[C@]1(C(=O)CCl)[C@@H](C)C[C@H]2[C@@H]3CCC4=CC(=O)C=C[C@]4(C)[C@@]3(F)[C@@H](O)C[C@@]21C` [Clobetasol Propionate] reads inactive: 1.03; that for `O=C1C[C@@H](c2ccc(O)cc2)Oc2cc(O)cc(O)c21` [Naringenin], inactive: -0.483.
With `CC(C)C[C@H](NP(=O)(O)O[C@H]1O[C@H](C)[C@@H](O)[C@H](O)[C@@H]1O)C(=O)N[C@@H](Cc1c[nH]c2ccccc12)C(=O)O` [Phosphoramidon disodium] the figure was inactive: -0.982; with `CC(/C=C/c1cccc(Oc2ccc(F)cc2)c1)N(O)C(N)=O` (stereo unspecified), inactive: 3.27.
For `O=c1c(O)c(-c2ccc(O)cc2O)oc2cc(O)cc(O)c12` [Morin], the Z-score is inactive: -0.336.
`COc1ccc(C2CNC(=O)C2)cc1OC1CCCC1` (stereo unspecified) [Rolipram]: the Z-score was inactive: -0.954.
Take `O=c1c(-c2ccc(O)cc2)coc2cc(O[C@@H]3O[C@H](CO)[C@@H](O)[C@H](O)[C@H]3O)ccc12` [Daidzin]: the Z-score was inactive: -0.554.
In the case of `CCCCCCCCCCCCCCCC(=O)O[C@@H]1[C@@H](O)[C@@H](O)[C@@H]([C@H](NC(=O)[C@@H]2C[C@@H](CCC)CN2C)[C@H](C)Cl)O[C@@H]1SC` [Clindamycin Palmitate·HCl], the Z-score is inactive: -0.705.
The result for `O=C(O)C1=CCCNC1` [Guvacine hydrochloride] reads inactive: -0.514; that for `Nc1ncnc2c1nc(Sc1ccc(Cl)cc1)n2C1OC2COP(=O)(O)O[C@@H]2[C@@H]1O` (stereo partly specified) [8-(4-Chlorophenylthio)-cAMP sodium], inactive: -0.532; that for `Nc1ncnc2c1c(I)cn2[C@@H]1O[C@H](CO)[C@@H](O)[C@H]1O` [5-Iodotubercidin], inactive: -1.38.
In the case of `CC1Cc2ccccc2N1NC(=O)c1ccc(Cl)c(S(N)(=O)=O)c1` (stereo unspecified) [Indapamide], the Z-score was inactive: 0.543.
The result for `CC(C)(C)[C@]1(O)CCN2C[C@H]3c4ccccc4CCc4cccc(c43)[C@@H]2C1` [(+)-Butaclamol hydrochloride] reads inactive: 0.345; that for `CC(C)(C)[C@]1(O)CCN2C[C@H]3c4ccccc4CCc4cccc(c43)[C@@H]2C1` (racemic) [(±)-Butaclamol hydrochloride], inactive: 3.13; that for `Nc1nc2[nH]c(=O)cnc2c(=O)[nH]1` [Isoxanthopterin], inactive: 0.0902.
With `CNC(=O)c1cnn(-c2nc(N)c3ncn([C@@H]4O[C@H](CO)[C@@H](O)[C@H]4O)c3n2)c1` [Regadenoson], the Z-score was inactive: -0.242.
In the case of `CO/N=C(\C(=O)N[C@@H]1C(=O)N2C(C(=O)O)=C(COC(N)=O)CS[C@H]12)c1ccco1` [Cefuroxime·Na], the Z-score was inactive: 0.0218.
Turning to `Nc1ccc(S(=O)(=O)Nc2ccnn2-c2ccccc2)cc1` [Sulfaphenazole], the Z-score was inactive: -0.403.
`C=CCN1CCc2c(cc(O)c(O)c2Br)[C@@H](c2ccccc2)C1` [R(+)-6-Bromo- APB  hydrobromide]: the Z-score was inactive: 4.09.
The result for `Cc1cccc(C#Cc2ccccc2)n1` [6-Methyl-2- (phenylethynyl) pyridine hydrochloride] reads inactive: -0.344; that for `c1ccc(C(NCc2cccnc2)(c2ccccc2)c2ccccc2)cc1`, inactive: 1.26.
As for `O=C1CC2(CCCC2)CC(=O)N1CCCCN1CCN(c2ncccn2)CC1` [Buspirone hydrochloride], the Z-score is inactive: 5.31.
With `O=C1CC2(CCCC2)CC(=O)N1CCCCN1CCN(c2ncccn2)CC1` [Buspirone·HCl] the figure was inactive: 0.381; with `Cc1cc(C)c(/C=C2\C(=O)Nc3ccccc32)[nH]1`, inactive: -0.446.
The result for `Nc1nc(=O)n(C2CC(O)C(CO)O2)cc1F` (stereo unspecified) [2'-Deoxy-5-fluorocytidine] reads inactive: -0.71.
`CNC(C)C1CCC(N)C(OC2C(N)CC(N)C(OC3OCC(C)(O)C(NC)C3O)C2O)O1` (stereo unspecified) [Gentamycin Sulfate]: the Z-score was inactive: 0.556.
The result for `CCCc1nc(C)c2c(=O)nc(-c3cc(S(=O)(=O)N4CCN(CC)CC4)ccc3OCC)[nH]n12` [Vardenafil] reads inactive: 0.681; that for `CN1CCN(c2nc3cc(C(F)(F)F)ccc3n3cccc23)CC1`, inactive: -1.32.
In the case of `COCCOC(=O)C1=C(C)NC(C)=C(C(=O)OC/C=C/c2ccccc2)C1c1cccc([N+](=O)[O-])c1` (stereo unspecified) [Cilnidipine], the Z-score is inactive: -1.2.
With `CC(C)=CCC/C(C)=C/CC/C(C)=C/CC/C(C)=C/CC/C(C)=C/CC/C(C)=C/CC/C(C)=C/CC/C(C)=C/CC/C(C)=C/CO` [Solanesol] the figure was inactive: -0.18; with `CO[C@@]12[C@H](COC(N)=O)C3=C(C(=O)C(C)=C(N)C3=O)N1C[C@@H]1N[C@@H]12` [Mitomycin C], inactive: 0.0605; with `CC1=Nc2ccc(Cl)cc2S(=O)(=O)N1` [Diazoxide], inactive: 0.245.
With `Cc1ccc(Cl)c(Nc2ccccc2C(=O)O)c1Cl` [Meclofenamic acid sodium salt] the figure was inactive: 0.314.
With `C=C1/C(=C\C=C2/CCC[C@]3(C)[C@@H]([C@H](C)/C=C/[C@@H](O)C4CC4)CC[C@@H]23)C[C@@H](O)C[C@@H]1O` [Calcipotriene] the figure was inactive: -0.187; with `CN(C)CCOc1ccc(/C(=C(/CCCl)c2ccccc2)c2ccccc2)cc1` [Toremifene Base], inactive: 0.103; with `C[C@H]1C[C@H]2[C@@H]3CCC4=CC(=O)C=C[C@]4(C)[C@@]3(F)[C@@H](O)C[C@]2(C)[C@@]1(O)C(=O)CO` [Betamethasone], inactive: 1.92.
Turning to `CCCC(CCC)C(=O)NO` [Valproic acid hydroxamate], the Z-score is inactive: 0.017.
Take `CCCn1c(=O)c2c(ncn2C)n(CCC)c1=O` [1,3-Dipropyl-7- methylxanthine]: the Z-score is inactive: -0.74.
